Results from PubChem BioAssay AID624297 (National Center for Advancing Translational Sciences (NCATS), 2012).
Screen size: about 340,000 compounds; about 6,200 (1.8%) were called active. Inconclusive means that the source gave no clear call. Such entries were picked first, then a sample of the others. Calls follow the shape of the dose curve; as a rule, active = well fitted activation curve with a large enough effect; inconclusive = small, poorly fitted or top-dose-only effect; inactive = no such curve, though single readings can be large or run the other way. Where the call is inconclusive, the potency comes from a doubtful curve fit.

experiment: A quantitative high throughput screen for small molecules that induce DNA re-replication in SW480 colon adenocarcinoma cells.; also: nearly all actives have a fitted effect of over 55% in size; as to re-replication activation: % of control where 0% means no effect; conditions: Hoechst DNA content imaging, 48 h; re-replication activation: at 46.1 µM (top of the series) unless noted
Procedure, shortened: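 Readout is total intensity of Hoechst-stained nuclei, excited at 405 nm and collected at 500-530 nm. Compound treatment lasted 48 hr at 37 C in 5% CO2 before staining.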
Potency is read from the fitted curve at half-maximal effect.

Row | SMILES | Potency | re-replication activation
1 | COc1ccccc1/C=C/C(=O)OCC(=O)Nc1cc(C(F)(F)F)ccc1N1CCOCC1 | active: 9.2 µM | –
2 | CCN(Cc1nc2ccccc2c(=O)[nH]1)C(=O)COc1ccccc1Cc1ccccc1 | inconclusive: 5.8 µM [activator, single point] | –
3 | COc1ccc(OC)c(CNn2c(-c3ccccc3F)nc3ccccc3c2=O)c1 | – | inactive: 20.8%
4 | CC1CCCN(C(=O)C(C)Nc2cc(Cl)ccc2N2CCOCC2)C1 (stereo not given) | inconclusive: 31.6 µM [activator, single point] | –
5 | Cc1ccccc1N1C(=O)CN(Cc2sccc2C)C1=S | inconclusive: 20.6 µM [activator, partial curve, poor fit] | –
6 | Cc1cc(C)c2nc(Nc3nc(CSc4nc5ccccc5[nH]4)cc(=O)[nH]3)nc(C)c2c1 | – | inactive: -10.9%
7 | Cc1cccn2c(=O)c(C=O)c(Cl)nc12 | inconclusive: 14.6 µM [activator, partial curve, poor fit] | –
8 | O=C(NCc1ccc(Cl)s1)C1CCC(=O)N(CCc2ccccn2)C1 (stereo not given) | inconclusive: 29.1 µM [activator, single point] | –
9 | O=C(CCc1nnc(-c2ccc3c(c2)OCO3)o1)NCCc1ccccc1F | inconclusive: 20.6 µM [activator, single point] | –
10 | O=C1ON=C(c2ccccc2)/C1=C/c1ccco1 | – | inactive: 19.1%
11 | CC(C)OCCCn1c(=O)c2ccccc2n2c(CCC(=O)O)nnc12 | – | inactive: 0.0641%
12 | O=C(O)CC1(CC(=O)Nc2cc(C(F)(F)F)cc(C(F)(F)F)c2)CCCCC1 | inconclusive: 7.31 µM [activator, partial curve, poor fit] | –
13 | O=C(CSc1nnc(SCc2ccc(Cl)cc2)s1)N/N=C/c1ccc(Cl)cc1Cl | – | inactive: 21.5%
14 | Cc1nc(Cl)sc1C(=O)Nc1ccc(C(C)(C)C)cc1 | inconclusive: 23.1 µM [activator, partial curve, poor fit] | –
15 | O=C1c2ccccc2C(=O)c2c1ccc1c(=O)n(C3CCCCC3)[nH]c21 | inconclusive: 20.6 µM [activator, single point] | –
16 | O=C(CSc1ccccc1)N/N=C/c1ccccc1O | inconclusive: 8.2 µM [activator, single point] | –
17 | CCN(C(=O)COC(=O)c1c(C)nsc1NC)c1ccccc1 | inconclusive: 9.2 µM [activator, partial curve, poor fit] | –
18 | CS(=O)(=O)N(CCc1ccccc1)CC(=O)Nc1ccccc1 | inconclusive: 0.517 µM [activator, full curve, poor fit] | –
19 | O=C1CC(c2ccc(Cl)cc2)Oc2ccc(Cl)cc21 (stereo not given) | inconclusive: 29.1 µM [activator, single point] | –
20 | Cc1noc2ncnc(Oc3cc(Cl)ccc3Cl)c12 | inconclusive: 18.4 µM [activator, single point] | –
21 | CCOCCCn1cnc2c3cc(F)ccc3n(C)c2c1=O | inconclusive: 6.51 µM [activator, single point] | –
22 | C=C(C)COc1ccc2c3c(c(=O)oc2c1OCC(=C)C)CCC3 | inconclusive: 32.6 µM [activator, single point] | –
23 | CCOc1ccc(Nc2nc(NCC3CCCO3)c3ccccc3n2)cc1 (stereo not given) | inconclusive: 18.4 µM [activator, single point] | –
24 | COc1ccc(/C=C/C(=O)c2ccc(C)c([N+](=O)[O-])c2)cc1O | inconclusive: 0.517 µM [activator, full curve, poor fit] | –

2 consecutive records already listed, quoted:
Row | SMILES | Potency | re-replication activation
14 | Cc1nc(Cl)sc1C(=O)Nc1ccc(C(C)(C)C)cc1 | inconclusive: 23.1 µM [activator, partial curve, poor fit] | –
15 | O=C1c2ccccc2C(=O)c2c1ccc1c(=O)n(C3CCCCC3)[nH]c21 | inconclusive: 20.6 µM [activator, single point] | –

Remaining list, next part

Row | SMILES | Potency | re-replication activation
25 | COc1ccc(-c2cc(-c3ccc(OC)cc3)nc(-c3ccc4c(c3)NC(=O)CO4)c2)cc1 | inconclusive: 18.4 µM [activator, single point] | –
26 | COc1ccc(CCN2CCCC(CN(C)Cc3cc(OC)c(OC)c(OC)c3)C2)cc1 (stereo not given) | inconclusive: 29.1 µM [activator, single point] | –
27 | Cc1cccc(NNC(N)=S)c1C | – | inactive: -3.43%
28 | CCN(CC)CCNC(=O)c1c(O)c2cccc3c2n(c1=O)CCC3 | inconclusive: 6.51 µM [activator, full curve, poor fit] | –
29 | CC(C)OCC(O)CN1CCN(CCN2C(=O)c3cccc4cccc(c34)C2=O)CC1 (stereo not given) | inconclusive: 23.1 µM [activator, single point] | –
30 | CCN(C(=S)Nc1ccc(Oc2ccccc2)cc1)c1ccccc1 | inconclusive: 25.9 µM [activator, single point] | –
31 | CCC(=O)c1cn(CC(=O)Nc2cccc(C)c2C)c2ccccc12 | – | inactive: -0.467%
32 | O=C(N/N=C/c1ccc2c(c1)OCO2)C1CC1 | – | inactive: 4.11%
33 | O=C(Nc1ccc(Cl)cc1C(=O)Nc1ccc(Br)cn1)c1ccco1 | – | inactive: 5.54%
34 | CCCCCCOc1ccc(/C=C/C(=O)N2CCOCC2)cc1OC | inconclusive: 18.4 µM [activator, single point] | –
35 | Cn1ncc(Cl)c1C(=O)Nc1nnc(C2CC2)s1 | – | inactive: -10.7%
36 | CN(CC(=O)Nc1ccccc1Cl)C(=O)c1cccc(S(=O)(=O)N2CCN(c3ccccc3)CC2)c1 | – | inactive: -0.484%
37 | Cc1ccc(NS(=O)(=O)c2cc(N)ccc2Cl)c(C)c1 | – | inactive: 0.787%
38 | O=[N+]([O-])c1cccc(CNc2ccc3c(c2)CCC3)c1 | inconclusive: 29.1 µM [activator, partial curve, poor fit] | –
39 | CCN1C(=O)c2cccc3c(Cl)ccc1c23 | inconclusive: 1.3 µM [activator, partial curve, poor fit] | –
40 | COc1cc(/C=C/C(=O)OCC(=O)Nc2ccccc2Sc2ccc(Cl)cc2)ccc1O | – | inactive: 13.5%
41 | COc1ccc(C2=NN(c3ccccc3)C(c3ccc(OC)c(OC)c3)C2)cc1 (stereo not given) | active: 14.6 µM | –
42 | O=C(N/N=C(\c1ccccc1)c1cccnc1)c1cccc(F)c1 | inconclusive: 0.651 µM [activator, full curve, poor fit] | –
43 | CCOc1ccc(C2C(C(=O)NC)=C(C)Nc3nc4ccccc4n32)cc1OC (stereo not given) | – | inactive: -12.1%
44 | Cc1ccc([N+](=O)[O-])cc1NC(=O)c1ccccc1 | – | inactive: -53.1%
45 | Cc1cc(C)cc(N(CC(=O)N2CCOCC2)S(=O)(=O)c2ccccc2)c1 | – | inactive: -4.22%
46 | CCOC(=O)Cn1nc(C)n(-c2c(C)cccc2C)c1=O | – | inactive: -3.63%
47 | CC(C)n1c(C(F)(F)F)nc2cc(C(=O)N3CCC(O)CC3)ccc21 | inconclusive: 32.6 µM [activator, single point] | –
48 | O=C(O)CN1C2=NCCCN2c2ccccc21 | inconclusive: 29.1 µM [activator, single point] | –

Complete entries as entered above. Values in the order: Potency | re-replication activation
O=C(Nc1ccc(Cl)cc1C(=O)Nc1ccc(Br)cn1)c1ccco1 is entered as – | inactive: 5.54%
Cc1cc(C)cc(N(CC(=O)N2CCOCC2)S(=O)(=O)c2ccccc2)c1 is entered as – | inactive: -4.22%
Cc1ccccc1N1C(=O)CN(Cc2sccc2C)C1=S is entered as inconclusive: 20.6 µM [activator, partial curve, poor fit] | –
Cc1noc2ncnc(Oc3cc(Cl)ccc3Cl)c12 is entered as inconclusive: 18.4 µM [activator, single point] | –

(cont.)

Row | SMILES | Potency | re-replication activation
49 | Cc1ccc2c(c1)[C@H]1[C@H](CO2)[C@H](c2ccccc2)[C@]2(C)C(=O)Nc3ccc(F)cc3C(=O)N12 | active: 5.8 µM | –
50 | COc1ccc(C(=O)NCC(=O)N/N=C/c2c(C)[nH]c3ccccc23)cc1OC | inconclusive: 32.6 µM [activator, single point] | –
51 | Clc1ccc(CN2CCC(Cc3ccccc3)CC2)cc1 | – | inactive: 4.51%
52 | Cc1cccc2nc(CSc3nnnn3-c3ccccc3)cn12 | inconclusive: 18.4 µM [activator, partial curve, poor fit] | –
53 | COc1ccc2nc(-c3ccc(N)cc3)[nH]c2c1 | – | inactive: -5.47% [at 9.22 µM]
54 | COc1ccc(-c2ccc3c(N)c(C(=O)c4cccc(OC)c4)sc3n2)cc1 | inconclusive: 29.1 µM [activator, single point] | –
55 | CCc1ccccc1NC(=O)c1ccc(-n2c(C)ccc2C)cc1 | inconclusive: 20.6 µM [activator, single point] | –
56 | CN(CCc1cnn(C)c1)Cc1cn[nH]c1-c1ccc(-c2ccccc2)cc1 | inconclusive: 29.1 µM [activator, single point] | –
57 | O=C(CN1CCN(c2ccccc2)CC1)Nc1ccc(Oc2ccccc2)cc1 | – | inactive: -1.98%
58 | O=C(/C=C/c1ccccc1Cl)c1ccccc(=O)c1O | active: 11.6 µM | –
59 | OC(CNCCC1C=Nc2ccccc21)Cn1c2ccc(Cl)cc2c2cc(Cl)ccc21 (stereo not given) | inconclusive: 3.66 µM [activator, full curve] | –
60 | CC(=O)Oc1c(-c2ccc(Br)o2)oc2ccccc2c1=O | inconclusive: 25.9 µM [activator, partial curve, poor fit] | –
61 | O=C(NCc1ccco1)C(c1ccccc1)N(CC1CCCO1)C(=O)Cn1nnc2ccccc21 (stereo not given) | inconclusive: 4.61 µM [activator, single point] | –
62 | CCC(C)NC(=O)C1CCN(S(=O)(=O)c2ccc3nc4c(c(C(=O)O)c3c2)CCCCC4)CC1 (stereo not given) | inconclusive: 14.6 µM [activator, single point] | –
63 | COc1cccc(C=O)c1OCCN1C(=O)c2ccccc2C1=O | – | inactive: -6.48%
64 | Cc1ccc(/C=C/C(=O)c2nc3ccccc3[nH]2)cc1 | inconclusive: 18.4 µM [activator, partial curve, poor fit] | –
65 | Cc1cccc(N(Cc2cc3ccccc3[nH]c2=O)S(=O)(=O)c2ccccc2)c1 | inconclusive: 6.51 µM [activator, partial curve, poor fit] | –
66 | C=CCc1cc(Cl)ccc1OCCn1ccnc1 | inconclusive: 20.6 µM [activator, single point] | –
67 | C[C@@H](C(=O)Nc1ccc2ccccc2c1)[C@H]1C[C@]1(C)[C@H](NC(=O)OCc1ccccc1)c1ccccc1 | inconclusive: 11.6 µM [activator, partial curve, poor fit] | –
68 | Cc1cc(C)cc(-n2c(SCC(=O)Nc3cccc(S(=O)(=O)NC4=NCCCCC4)c3)nc3ccccc3c2=O)c1 | inconclusive: 32.6 µM [activator, partial curve, poor fit] | –
69 | Cc1ccc(C(=O)Nc2nnc(C)s2)cc1 | inconclusive: 2.31 µM [activator, partial curve, poor fit] | –
70 | O=C(NCCC1=CCCCC1)c1c(O)nc2ccccn2c1=O | – | inactive: 0.124%
